Data as given in patent publication US20020102606A1.
No constants are given. Whether binding was seen depends on the method and setting. Some binding calls cover weakened binding; strength is not graded here.

By UniProt entry, the sequences of proteins in these tests, tags left out. Residues count along the entry.
UniProt Q16539, residues 28-360: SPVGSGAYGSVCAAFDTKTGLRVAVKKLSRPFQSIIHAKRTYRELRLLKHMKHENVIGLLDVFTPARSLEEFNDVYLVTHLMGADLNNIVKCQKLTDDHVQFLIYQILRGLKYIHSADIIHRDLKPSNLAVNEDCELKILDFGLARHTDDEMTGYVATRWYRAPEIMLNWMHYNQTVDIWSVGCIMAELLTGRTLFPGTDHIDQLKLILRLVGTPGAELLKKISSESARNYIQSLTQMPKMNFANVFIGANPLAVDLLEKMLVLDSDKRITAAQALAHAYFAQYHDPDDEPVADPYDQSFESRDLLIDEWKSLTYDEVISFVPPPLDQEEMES

Assays:
[1] = target: p38 alpha amino acids 28-360 (bait) (UniProt Q16539); experiment: yeast two-hybrid
[2] = target: p38 alpha amino acids 28-360 (bait) (UniProt Q16539); experiment: yeast two-hybrid; prey clone found with the bait of the row

binding [1]: binds | binding [2]: binds
Binder: CDSQFYSVQVADSTFTVLKRYQQLKPIGSGAQGIV (enzyme) [JNK2 amino acids 6-40 (prey)]
